Measured values as given in patent US20250129167A1.
Results are given in words; binding and its absence hold for the method and conditions named. Some results given as binding are weak or reduced against the parent protein; the word gives no strength.

How the values were obtained:
Cyno PD-L1-Fc (cyno) = Cyno PD-L1-Fc (cyno) (UniProt G7PSE7); assay: column 'Species cross-reactivity'
Cyno PD-L2-Fc (cyno) = assay: column 'Species cross-reactivity'

| Binder | binding (Cyno PD-L1-Fc (cyno)) | binding (Cyno PD-L2-Fc (cyno)) |
| --- | --- | --- |
| ADI-20225 (antibody, V domains shown) VH: QVQLVQSGAEVKKPGASVKVSCKASGGTFRSYAIQWVRQAPGQGLEWMGWIIPGFGTANYAQKFQGRVTITADESTSTAYMELSSLRSEDTAVYYCARELSHGGLSYWGQGTLVTVSS VL: DIQMTQSPSSVSASVGDRVTITCRASQGISSWLAWYQQKPGKAPKLLIYAASSLQSGVPSRFSGSGSGTDFTLTISSLQPEDFATYYCQQANSFPITFGGGTKVEIK | binds |  |
| ADI-20236 (antibody, V domains shown) VH: QVQLVQSGAEVKKPGSSVKVSCKASGGTFSSHAISWVRQAPGQGLEWMGGIIPIFGWALYAQKFQGRVTITADESTSTAYMELSSLRSEDTAVYYCARPGDHRASHFDYWGQGTLVTVSS VL: DIQMTQSPSSVSASVGDRVTITCRASQGISSWLAWYQQKPGKAPKLLIYAASSLQSGVPSRFSGSGSGTDFTLTISSLQPEDFATYYCQQANSFPITFGGGTKVEIK |  | binds |
